Results on 6 compounds are retold here after the M2OR odorant receptor database.

Amino acid sequences for entries named in this document (tags omitted). A change or cut given only in a name is not applied to a line headed by its entry.
UniProt Q8NGE3: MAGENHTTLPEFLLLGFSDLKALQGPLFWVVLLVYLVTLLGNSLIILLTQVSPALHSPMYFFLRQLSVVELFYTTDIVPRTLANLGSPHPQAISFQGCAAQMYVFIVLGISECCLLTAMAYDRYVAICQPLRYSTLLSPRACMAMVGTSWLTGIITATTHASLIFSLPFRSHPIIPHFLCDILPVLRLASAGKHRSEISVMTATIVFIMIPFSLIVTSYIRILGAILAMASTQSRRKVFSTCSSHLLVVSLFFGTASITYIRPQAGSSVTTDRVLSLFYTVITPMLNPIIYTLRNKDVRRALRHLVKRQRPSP
UniProt Q8NGQ4: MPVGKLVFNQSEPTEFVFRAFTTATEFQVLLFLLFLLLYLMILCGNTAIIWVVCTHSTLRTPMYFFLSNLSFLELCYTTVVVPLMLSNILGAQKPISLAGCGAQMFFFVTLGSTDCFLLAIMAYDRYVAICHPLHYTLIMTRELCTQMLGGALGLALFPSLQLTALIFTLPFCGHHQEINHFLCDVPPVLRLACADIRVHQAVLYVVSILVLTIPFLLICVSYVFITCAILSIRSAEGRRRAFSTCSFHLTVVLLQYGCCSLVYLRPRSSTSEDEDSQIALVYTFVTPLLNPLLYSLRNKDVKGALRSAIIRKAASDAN
UniProt Q8NGX6: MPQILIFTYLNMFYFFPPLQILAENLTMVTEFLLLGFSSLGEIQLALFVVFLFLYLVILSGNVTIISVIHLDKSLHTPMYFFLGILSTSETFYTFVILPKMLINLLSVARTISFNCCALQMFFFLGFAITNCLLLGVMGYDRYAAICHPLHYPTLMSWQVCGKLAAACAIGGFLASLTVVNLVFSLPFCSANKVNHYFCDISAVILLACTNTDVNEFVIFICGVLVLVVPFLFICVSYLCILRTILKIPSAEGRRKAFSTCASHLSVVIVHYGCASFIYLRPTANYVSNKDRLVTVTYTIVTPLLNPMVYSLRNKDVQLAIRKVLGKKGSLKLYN
UniProt Q8NGF6: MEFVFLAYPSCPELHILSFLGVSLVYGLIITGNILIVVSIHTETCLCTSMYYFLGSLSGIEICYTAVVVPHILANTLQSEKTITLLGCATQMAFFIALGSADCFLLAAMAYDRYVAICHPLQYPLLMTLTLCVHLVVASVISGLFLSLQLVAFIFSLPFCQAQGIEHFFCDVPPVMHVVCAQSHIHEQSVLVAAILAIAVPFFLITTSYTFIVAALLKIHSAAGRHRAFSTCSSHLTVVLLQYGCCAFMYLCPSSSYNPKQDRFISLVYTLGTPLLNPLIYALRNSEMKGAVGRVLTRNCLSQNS
UniProt Q8NGC1: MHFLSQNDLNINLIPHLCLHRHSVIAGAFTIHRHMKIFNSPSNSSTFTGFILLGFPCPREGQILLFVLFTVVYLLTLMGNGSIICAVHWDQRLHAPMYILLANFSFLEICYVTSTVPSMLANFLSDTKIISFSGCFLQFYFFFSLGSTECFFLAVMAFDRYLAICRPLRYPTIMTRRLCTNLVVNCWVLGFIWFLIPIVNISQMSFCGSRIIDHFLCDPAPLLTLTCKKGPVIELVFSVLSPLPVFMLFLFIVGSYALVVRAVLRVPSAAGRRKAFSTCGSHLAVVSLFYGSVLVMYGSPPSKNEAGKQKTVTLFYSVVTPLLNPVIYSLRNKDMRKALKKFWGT
UniProt Q8NG94: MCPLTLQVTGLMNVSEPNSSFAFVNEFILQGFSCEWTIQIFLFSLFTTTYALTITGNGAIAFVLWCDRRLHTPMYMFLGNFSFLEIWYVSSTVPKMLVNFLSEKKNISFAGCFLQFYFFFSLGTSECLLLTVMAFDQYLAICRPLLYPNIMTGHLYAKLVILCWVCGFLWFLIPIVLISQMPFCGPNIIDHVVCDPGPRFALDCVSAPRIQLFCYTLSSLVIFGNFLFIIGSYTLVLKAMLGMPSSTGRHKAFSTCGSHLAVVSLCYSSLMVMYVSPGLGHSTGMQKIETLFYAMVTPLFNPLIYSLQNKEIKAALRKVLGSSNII
UniProt Q8NGX0: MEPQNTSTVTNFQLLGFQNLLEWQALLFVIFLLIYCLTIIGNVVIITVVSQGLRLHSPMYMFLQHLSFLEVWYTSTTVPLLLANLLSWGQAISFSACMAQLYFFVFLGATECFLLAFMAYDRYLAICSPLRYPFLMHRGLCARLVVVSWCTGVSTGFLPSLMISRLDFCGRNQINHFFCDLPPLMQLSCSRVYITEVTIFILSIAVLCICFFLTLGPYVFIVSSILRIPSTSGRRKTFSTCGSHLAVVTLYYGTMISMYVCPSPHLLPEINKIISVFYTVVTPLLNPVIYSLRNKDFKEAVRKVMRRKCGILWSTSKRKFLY

Molecules are shown by their SMILES. Only a part is listed here, and it is no random draw. The calls were merged from several studies; some rest on single wells. The list shows a part of the results.

Common to all, as to settings: stereoisomer not certain
One assay addresses T1, OR10K1 (Homo sapiens) (UniProt Q8NGX5).
T1 sequence (whole entry): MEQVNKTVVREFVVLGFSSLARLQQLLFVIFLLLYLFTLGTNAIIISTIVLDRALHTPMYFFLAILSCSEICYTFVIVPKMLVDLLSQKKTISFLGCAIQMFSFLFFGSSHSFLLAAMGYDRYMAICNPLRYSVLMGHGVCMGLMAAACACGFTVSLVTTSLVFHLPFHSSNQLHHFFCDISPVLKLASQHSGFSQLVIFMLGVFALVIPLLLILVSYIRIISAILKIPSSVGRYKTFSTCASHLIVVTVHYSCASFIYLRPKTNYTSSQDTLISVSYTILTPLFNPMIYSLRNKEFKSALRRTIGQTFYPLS
Put shortly: (§1)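 Each receptor–molecule pair is labelled responsive or non-responsive (inactive) according to whether the original authors judged the measured signal statistically different from baseline. The data were taken from the main text and supplementary material of published papers and checked for typos and inconsistencies. Assay methods differed by source, with transient luciferase assays in mammalian cell lines being common.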

The target in another assay is T2, OR10K2 (Homo sapiens) (UniProt Q6IF99).
T2 sequence (whole entry): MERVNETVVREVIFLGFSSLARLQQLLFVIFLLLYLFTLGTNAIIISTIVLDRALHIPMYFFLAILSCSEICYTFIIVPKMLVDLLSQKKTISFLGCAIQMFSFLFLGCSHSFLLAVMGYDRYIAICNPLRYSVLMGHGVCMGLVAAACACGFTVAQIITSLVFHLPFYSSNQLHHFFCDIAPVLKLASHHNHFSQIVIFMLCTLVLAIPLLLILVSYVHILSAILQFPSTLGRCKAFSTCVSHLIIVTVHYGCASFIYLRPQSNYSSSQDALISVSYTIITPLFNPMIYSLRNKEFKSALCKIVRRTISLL
Put shortly: as §1

The target in a further assay is T3, OR10T2 (Homo sapiens) (UniProt Q8NGX3).
T3 sequence (whole entry): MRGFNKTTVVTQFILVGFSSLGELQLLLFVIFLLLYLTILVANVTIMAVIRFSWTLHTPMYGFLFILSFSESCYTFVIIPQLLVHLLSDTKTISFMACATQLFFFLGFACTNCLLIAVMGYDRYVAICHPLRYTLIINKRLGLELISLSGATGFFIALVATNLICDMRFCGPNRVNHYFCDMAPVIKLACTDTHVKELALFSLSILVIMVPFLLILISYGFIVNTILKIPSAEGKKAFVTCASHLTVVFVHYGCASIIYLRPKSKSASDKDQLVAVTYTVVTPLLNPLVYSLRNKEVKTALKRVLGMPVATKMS
Put shortly: as §1

The target of another assay is T4, OR10X1 (Homo sapiens) (UniProt Q8NGY0).
T4 sequence (whole entry): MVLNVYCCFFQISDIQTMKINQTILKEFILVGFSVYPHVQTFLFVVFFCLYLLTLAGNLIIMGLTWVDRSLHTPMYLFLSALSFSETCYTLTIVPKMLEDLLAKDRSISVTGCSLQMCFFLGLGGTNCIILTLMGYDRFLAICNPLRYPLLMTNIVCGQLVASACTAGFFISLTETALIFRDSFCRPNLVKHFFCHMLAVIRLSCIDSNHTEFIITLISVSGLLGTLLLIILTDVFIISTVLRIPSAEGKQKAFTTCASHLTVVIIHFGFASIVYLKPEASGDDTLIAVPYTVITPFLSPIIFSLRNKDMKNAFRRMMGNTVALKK
Put shortly:
as §1

The target of a further assay is T5, OR10Z1 (Homo sapiens) (UniProt Q8NGY1).
T5 sequence (whole entry): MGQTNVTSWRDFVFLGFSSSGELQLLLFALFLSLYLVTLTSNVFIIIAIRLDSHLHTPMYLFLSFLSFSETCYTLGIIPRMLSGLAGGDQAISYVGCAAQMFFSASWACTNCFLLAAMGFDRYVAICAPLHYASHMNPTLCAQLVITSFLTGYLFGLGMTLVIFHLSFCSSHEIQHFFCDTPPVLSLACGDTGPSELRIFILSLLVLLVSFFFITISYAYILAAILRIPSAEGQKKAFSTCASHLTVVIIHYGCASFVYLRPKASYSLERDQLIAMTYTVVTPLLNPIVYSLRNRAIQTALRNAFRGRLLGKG
The essentials:
as §1

A further assay has as its target T6, OR11A1 (Homo sapiens) (UniProt Q9GZK7).
T6 sequence (whole entry): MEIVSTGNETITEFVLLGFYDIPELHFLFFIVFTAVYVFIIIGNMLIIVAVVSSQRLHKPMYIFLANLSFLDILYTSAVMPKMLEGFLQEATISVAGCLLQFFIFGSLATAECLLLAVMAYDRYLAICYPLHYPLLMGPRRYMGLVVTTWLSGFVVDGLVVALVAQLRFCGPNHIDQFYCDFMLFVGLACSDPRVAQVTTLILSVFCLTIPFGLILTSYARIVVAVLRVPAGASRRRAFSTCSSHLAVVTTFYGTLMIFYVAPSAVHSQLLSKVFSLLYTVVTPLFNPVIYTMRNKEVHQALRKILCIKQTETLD
The essentials:
as §1

The next assay deals with T7, OR11H4 (Homo sapiens) (UniProt Q8NGC9).
T7 sequence (whole entry): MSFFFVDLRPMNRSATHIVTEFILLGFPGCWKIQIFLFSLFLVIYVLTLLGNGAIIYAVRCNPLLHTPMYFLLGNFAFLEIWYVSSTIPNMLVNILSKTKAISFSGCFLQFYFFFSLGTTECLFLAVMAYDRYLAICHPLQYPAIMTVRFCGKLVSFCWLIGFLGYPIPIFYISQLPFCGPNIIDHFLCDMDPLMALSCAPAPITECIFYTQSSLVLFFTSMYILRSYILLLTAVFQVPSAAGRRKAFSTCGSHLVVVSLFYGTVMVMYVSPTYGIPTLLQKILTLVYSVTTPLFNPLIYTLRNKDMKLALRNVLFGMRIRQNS
The essentials: as §1

For another assay, the target named is T8, OR11H6 (Homo sapiens) (UniProt Q8NGC7).
T8 sequence (whole entry): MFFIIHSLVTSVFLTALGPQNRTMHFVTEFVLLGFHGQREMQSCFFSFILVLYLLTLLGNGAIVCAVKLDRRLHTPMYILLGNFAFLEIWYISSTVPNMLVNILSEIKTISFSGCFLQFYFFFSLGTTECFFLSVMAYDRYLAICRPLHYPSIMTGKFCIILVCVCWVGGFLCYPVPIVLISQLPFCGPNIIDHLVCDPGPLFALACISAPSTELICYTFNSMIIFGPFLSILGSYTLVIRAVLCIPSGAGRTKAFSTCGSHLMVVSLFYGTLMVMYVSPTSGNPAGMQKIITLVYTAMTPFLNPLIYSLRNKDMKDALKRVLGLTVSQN
Put shortly:
as §1

The next assay concerns the target T9, OR12D2 (Homo sapiens) (UniProt P58182).
T9 sequence (whole entry): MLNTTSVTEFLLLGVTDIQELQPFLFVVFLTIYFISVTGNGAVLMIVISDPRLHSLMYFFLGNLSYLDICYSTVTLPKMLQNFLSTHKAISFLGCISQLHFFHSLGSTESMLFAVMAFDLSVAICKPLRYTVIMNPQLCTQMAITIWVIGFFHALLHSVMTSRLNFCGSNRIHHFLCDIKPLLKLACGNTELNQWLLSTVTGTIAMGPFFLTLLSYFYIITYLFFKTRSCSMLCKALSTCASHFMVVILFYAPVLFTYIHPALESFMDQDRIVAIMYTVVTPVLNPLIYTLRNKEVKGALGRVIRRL
The essentials:
as §1

A further assay deals with T10, OR12D3 (Homo sapiens) (UniProt Q9UGF7).
T10 sequence (whole entry): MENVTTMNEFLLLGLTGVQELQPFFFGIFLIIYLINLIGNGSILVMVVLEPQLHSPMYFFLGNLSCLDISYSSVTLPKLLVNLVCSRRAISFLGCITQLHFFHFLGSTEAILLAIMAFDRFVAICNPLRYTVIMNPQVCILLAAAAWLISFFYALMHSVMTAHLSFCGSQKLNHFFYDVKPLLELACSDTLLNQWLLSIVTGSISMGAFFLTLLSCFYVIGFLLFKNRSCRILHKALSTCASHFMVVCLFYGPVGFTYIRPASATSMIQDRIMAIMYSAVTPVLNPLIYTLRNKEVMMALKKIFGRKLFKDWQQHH
Put shortly: as §1

A further assay deals with T11, OR13A1 (Homo sapiens) (UniProt Q8NGR1).
T11 sequence (whole entry): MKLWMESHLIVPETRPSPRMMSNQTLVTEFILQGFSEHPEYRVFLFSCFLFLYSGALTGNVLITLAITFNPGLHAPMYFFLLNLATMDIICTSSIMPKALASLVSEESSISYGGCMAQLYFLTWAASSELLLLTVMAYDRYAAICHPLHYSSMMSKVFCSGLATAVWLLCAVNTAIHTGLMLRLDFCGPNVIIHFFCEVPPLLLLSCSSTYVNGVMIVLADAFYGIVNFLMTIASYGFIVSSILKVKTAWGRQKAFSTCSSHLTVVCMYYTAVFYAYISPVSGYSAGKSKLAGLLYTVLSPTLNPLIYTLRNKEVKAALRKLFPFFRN
The essentials: as §1

Another assay concerns the target T12, OR10S1 (Homo sapiens) (UniProt Q8NGN2).
T12 sequence (whole entry): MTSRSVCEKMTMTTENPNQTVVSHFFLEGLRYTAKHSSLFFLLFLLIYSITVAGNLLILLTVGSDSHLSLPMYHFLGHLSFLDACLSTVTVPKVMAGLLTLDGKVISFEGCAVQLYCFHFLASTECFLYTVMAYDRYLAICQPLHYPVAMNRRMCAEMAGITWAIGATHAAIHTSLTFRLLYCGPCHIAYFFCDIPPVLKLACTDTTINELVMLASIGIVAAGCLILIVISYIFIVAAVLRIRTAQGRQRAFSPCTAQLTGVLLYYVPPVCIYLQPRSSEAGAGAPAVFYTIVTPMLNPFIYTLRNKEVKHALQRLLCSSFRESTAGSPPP
Put shortly: as §1

The next assay concerns the target OR10P1 (Homo sapiens) (UniProt Q8NGE3). Put shortly: as §1
Another assay addresses OR10Q1 (Homo sapiens) (UniProt Q8NGQ4). The essentials:
as §1

Another assay concerns the target OR10R2 (Homo sapiens) (UniProt Q8NGX6). Put shortly: as §1
The target in a further assay is OR10W1 (Homo sapiens) (UniProt Q8NGF6). Put shortly: as §1
The target of another assay is OR11G2 (Homo sapiens) (UniProt Q8NGC1). Put shortly:
as §1

The next assay concerns the target OR11H1 (Homo sapiens) (UniProt Q8NG94). Put shortly:
as §1

A further assay concerns the target OR11L1 (Homo sapiens) (UniProt Q8NGX0). The essentials:
as §1

Take `CCCCCCCCCC=O`: the “odorant receptor agonist call” value in the assay with OR10K1 (Homo sapiens), with OR10K2 (Homo sapiens), in the assay with OR10T2 (Homo sapiens), with OR10X1 (Homo sapiens), with OR10Z1 (Homo sapiens) and with OR11A1 (Homo sapiens) was “inactive” in each case. In addition, the “odorant receptor agonist call” value in the assay with OR11H4 (Homo sapiens), with OR11H6 (Homo sapiens), with OR12D2 (Homo sapiens), with OR12D3 (Homo sapiens) and with OR13A1 (Homo sapiens) was “inactive” in each case.
As for `C=CCc1ccc(OC)c(OC)c1`, the “odorant receptor agonist call” value with OR10K1 (Homo sapiens), with OR10K2 (Homo sapiens), with OR10T2 (Homo sapiens), with OR10X1 (Homo sapiens), with OR10Z1 (Homo sapiens) and with OR11A1 (Homo sapiens) was “inactive” in each case. For the same compound, the “odorant receptor agonist call” value with OR11H4 (Homo sapiens), with OR11H6 (Homo sapiens), with OR12D2 (Homo sapiens), with OR12D3 (Homo sapiens) and with OR13A1 (Homo sapiens) was “inactive” each time.
Turning to `COc1cc(C=O)ccc1O`, the “odorant receptor agonist call” value with OR10K1 (Homo sapiens), in the assay with OR10K2 (Homo sapiens), with OR10S1 (Homo sapiens), with OR10T2 (Homo sapiens), with OR10X1 (Homo sapiens) and with OR10Z1 (Homo sapiens) was “inactive” throughout. The “odorant receptor agonist call” value with OR11A1 (Homo sapiens), with OR11H4 (Homo sapiens), with OR11H6 (Homo sapiens), with OR12D2 (Homo sapiens), with OR12D3 (Homo sapiens) and with OR13A1 (Homo sapiens) was “inactive” each time.
In the case of `CC12C=CCC1C1CCC3CC(=O)CCC3(C)C1CC2` (centres undefined), the “odorant receptor agonist call” value with OR10K1 (Homo sapiens), with OR10K2 (Homo sapiens), with OR10P1 (Homo sapiens), in the assay with OR10Q1 (Homo sapiens), with OR10R2 (Homo sapiens) and in the assay with OR10T2 (Homo sapiens) was “inactive” in each case. The “odorant receptor agonist call” value with OR10W1 (Homo sapiens), in the assay with OR10X1 (Homo sapiens), with OR10Z1 (Homo sapiens), with OR11A1 (Homo sapiens), with OR11G2 (Homo sapiens) and with OR11H1 (Homo sapiens) was “inactive” throughout. The “odorant receptor agonist call” value with OR11H4 (Homo sapiens), with OR11H6 (Homo sapiens), in the assay with OR11L1 (Homo sapiens), with OR12D2 (Homo sapiens), in the assay with OR12D3 (Homo sapiens) and with OR13A1 (Homo sapiens) was “inactive” throughout.
On to `O=C1CCCCC1`, for which the “odorant receptor agonist call” value with OR10K1 (Homo sapiens), with OR10K2 (Homo sapiens), with OR10T2 (Homo sapiens), in the assay with OR10X1 (Homo sapiens), with OR10Z1 (Homo sapiens) and in the assay with OR11A1 (Homo sapiens) was “inactive” each time. Moreover, the “odorant receptor agonist call” value with OR11H4 (Homo sapiens), with OR11H6 (Homo sapiens), with OR12D3 (Homo sapiens) and with OR13A1 (Homo sapiens) was “inactive” in each case. Moreover, the “odorant receptor agonist call” value with OR12D2 (Homo sapiens) was “active”.
On to `COc1ccccc1O`, for which the “odorant receptor agonist call” value in the assay with OR10K1 (Homo sapiens), with OR10K2 (Homo sapiens), in the assay with OR10T2 (Homo sapiens), with OR10X1 (Homo sapiens), with OR10Z1 (Homo sapiens) and with OR11A1 (Homo sapiens) was “inactive” each time. For the same compound, the “odorant receptor agonist call” value in the assay with OR11H4 (Homo sapiens), in the assay with OR11H6 (Homo sapiens), with OR12D2 (Homo sapiens), with OR12D3 (Homo sapiens) and with OR13A1 (Homo sapiens) was “inactive” in each case.
